Laboratory results taken from patent publication US20100068747A1, “Generic Assay for Monitoring Endocytosis” (Evotec Technologies GmbH, priority 2005, published 2010).
Some entries share one result that the patent states for a list of compounds. Some compounds share one range, which may span the group rather than tell each member.

What was measured:
[1] = target: T1, proteinase-activated receptor-2 (PAR-2) (Homo sapiens, UniProt P55085); assay: Lectin labeling of live cells with receptor targeted stimulation, CHO/PAR-2; assay type: cell-based; details: CHO/PAR-2, PAR-2 agonist peptide stimulation
T1 construct: expressed in transfected cells; host or cells: CHO-K1 cell line clone #04, prepared in-house
T1 sequence (P55085 26-397): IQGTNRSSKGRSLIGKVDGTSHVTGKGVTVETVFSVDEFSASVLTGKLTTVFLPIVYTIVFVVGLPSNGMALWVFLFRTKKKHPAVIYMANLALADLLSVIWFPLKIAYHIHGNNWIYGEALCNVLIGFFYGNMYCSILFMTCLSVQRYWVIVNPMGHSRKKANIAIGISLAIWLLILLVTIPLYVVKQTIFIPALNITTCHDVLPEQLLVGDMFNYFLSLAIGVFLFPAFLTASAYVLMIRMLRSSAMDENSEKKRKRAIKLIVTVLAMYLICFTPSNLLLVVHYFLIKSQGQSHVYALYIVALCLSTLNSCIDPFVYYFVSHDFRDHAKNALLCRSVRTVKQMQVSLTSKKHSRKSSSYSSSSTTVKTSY

[2] = system: CHO/ETAR cell membrane protein; assay: Lectin blotting of ETAR membrane sample; assay type: binding; details: biotinylated lectin 5 μg/ml, exposure one to three minutes
Description: Membrane preparation was conducted as follows: Cells were cultured in five T175 flasks until confluency. Confluent cells were detached by applying 3 ml of EDTA solution onto the PBS washed cells. Following a 20-minute incubation at 37° C. and 5% CO2, cells were resuspended in 12 ml of starvation medium (standard medium without FCS), counted, and centrifuged in a Heraeus Megafuge 1.0R at 133 rcf for 4 minutes. All subsequent steps were carried out on ice and with ice cold solutions. After unification of all pellet fractions, hypotonic lysis buffer was added to the cells at a ratio of 1 ml per 5*10^7 cells. Additionally, protease inhibitor cocktail was added to 50 μl per 5*10^7 cells. Cells were homogenized with 30 strokes in a 5 ml potter on ice, centrifuged at 4° C. and 917 rcf for 10 minutes, and the supernatant was stored in an ultracentrifuge tube on ice. The pellet fraction was homogenized and centrifuged once again as described above. The supernatants of both procedures were unified and centrifuged at 4° C. and 100,000 rcf for 45 minutes in a Sorvall ultra-centrifuge. The supernatant of this centrifugation procedure was withdrawn and the pellet dissolved in 0.5 ml or 1.0 ml modified SDS PAGE loading buffer containing Tris-HCl, SDS, glycerol, but no β-mercapto-ethanol or dyes and stored in small aliquots of 50 μl at −20° C. […]

Griffonia (Bandeiraea) simplicifolia lectin [GSL-I]
early spot formation, time after stimulation [1]: 20 to 30 min

succinylated Triticum vulgaris (wheat germ) agglutin [sWGA]
early spot formation, time after stimulation [1]: 20 to 30 min | number of intensive bands in lectin blot [2]: at least 13

Pisum sativum agglutin [PSA]
number of intensive bands in lectin blot [2]: at least 13
